The inconclusive results got no clear call from the source; some entries with a clear call stand among them for comparison. Where the call is inconclusive, the potency comes from a doubtful curve fit. Active and inactive are the calls of the source. Calls follow the shape of the dose curve; as a rule, active = well fitted cell-killing curve with a large enough effect; inconclusive = small, poorly fitted or top-dose-only effect, or effect the other way; inactive = no such curve, though single readings can be large or run the other way.
Experiment: Quantitative High-Throughput drug screen in 47 multiple myeloma cell lines against the NCATS MIPE library collection: JJN3_DSMZ cell viability assay (AID 1918966; also: nearly all actives have a fitted effect of over 50% in size)
Details: JJN3 myeloma cells viability, CellTiter-Glo ATP, 48 h; series mostly up to 45.8 µM; viability, % of DMSO: at the top concentration
Excerpt: PI: Beverly A. Mock Ph.D.
Laboratory of Cancer Biology and Genetics,
Center for Cancer Research, National Cancer Institute,
National Institute of Health, Bethesda, Maryland
Drug resistance and disease progression are common in multiple myeloma (MM) patients, underscoring the need for new therapeutic combinations. […] We hypothesized that effective combinations would reduce MYC expression and enhance p16 activity. […] These preclinical data identify potentially useful drug combinations for evaluation in drug-resistant MM and reveal potential mechanisms of combined drug sensitivity.
Described herein is the primary MIPE qHTS used to cherrypick compounds. Validated compounds were then further tested for potential synergistic activiy.
[1] Peat TJ, Gaikwad SM, Dubois W, Gyabaah-Kessie N, Zhang S, Gorjifard S, Phyo Z, Andres M, Hughitt VK, Simpson RM, Miller MA, Girvin AT, Taylor A, Williams D, D'Antonio N, Zhang Y, Rajagopalan A, Flietner E, Wilson K, Zhang X, Shinn P, Klumpp-Thomas C, McKnight C, Itkin Z, Chen L, Kazandijian D, Zhang J, Michalowski AM, Simmons JK, Keats J, Thomas CJ, Mock BA. Drug combinations identified by high-throughput screening promote cell cycle transition and upregulate Smad pathways in myeloma. Cancer Lett. 2023 Aug 1;568:216284. doi: 10.1016/j.canlet.2023.216284. Epub 2023 Jun 24. PMID: 37356470; PMCID: PMC10408729.
SEQUENCE No. (e.g., 1, 2, 3, etc.); […] (e.g., Cells, Incubation, Reagent, etc.); VALUE and DESCRIPTION.
1; Cells; 5 uL; white, solid bottom 1536-well Greiner assay plate.
2; Compounds; 23 nL; Kalypsis pin tool (Wako USA) equipped with a 1536-well pin head to transfer to the assay plates.
3; Incubation; 48 hours; 37C incubation.
4; Reagent;5uL; CellTiter Glo (Promega).
5; Detector; 425V; Luminescence; Viewlux PerkinElmer.
NOTES (numbers refer to Sequence numbers above)
1. The cell-based screening methods employed in this study were like those previously published. Briefly, the corresponding myeloma cell lines were screened in 1,536-well plates with 500 cells, 5-uL per well for inhibition of cell viability (assessed by measuring ATP levels with CellTiterGlo).
2. NCATS MIPE 4.0 library of approved and investigational drugs were added using the Kalypsis pin tool. Wells treated with DMSO only for 100% viability and media only wells for 0% viability were used as controls.
3. The assay plates were covered and incubated for 48 hours in a 37C, 5% CO2 incubator with controlled humidity.
4. After 48 hours, CellTilter-GloTM luminescent substrate mix (Promega) reagent was added to the assay plate and plates we incubated for 5 min at room temperature.
5. Signal was measured as median relative luminescence units on a ViewLux (PerkinElmer) multiplate reader.
[1] Heske CM, Davis MI, Baumgart JT, Wilson K, Gormally MV, Chen L, Zhang X, Ceribelli M, Duveau DY, Guha R, Ferrer M, Arnaldez FI, Ji J, Tran HL, Zhang Y, Mendoza A, Helman LJ, Thomas CJ. Matrix Screen Identifies Synergistic Combination of PARP Inhibitors and Nicotinamide Phosphoribosyltransferase (NAMPT) Inhibitors in Ewing Sarcoma. Clin Cancer Res. 2017 Dec 1;23(23):7301-7311. doi: 10.1158/1078-0432.CCR-17-1121. Epub 2017 Sep 12. PMID: 28899971; PMCID: PMC6636827.
With `O=C(O)CCCc1c[nH]c2ccccc12` the Potency was inconclusive: 0.0418 µM [rising, full curve, poor fit].
In the case of `Nc1c2c(nc3ccccc13)CCCC2`, the Potency was active: 5.26 µM.
With `CCC(C)(C)c1ccc(CC(C)CN2C[C@@H](C)O[C@@H](C)C2)cc1` (stereo not given in full) the Potency was inconclusive: 33.2 µM [cytotoxic, single point].
For `CCCc1nc(C(C)(C)O)c(C(=O)O)n1Cc1ccc(-c2ccccc2-c2nn[nH]n2)cc1`, the “viability, % of DMSO” value was inactive: 126%.
With `Fc1ccc(C(c2ccc(F)cc2)N2CCN(CC=Cc3ccccc3)CC2)cc1` the Potency was inconclusive: 18.7 µM [cytotoxic, partial curve, poor fit].
In the case of `Fc1ccc(Cl)cc1-c1nc(Nc2ccncc2)c2nccnc2n1`, the Potency was inconclusive: 13.2 µM [cytotoxic, partial curve, poor fit].
For `CCN1CCN(c2ccc(Nc3cc(N(C)C(=O)Nc4c(Cl)c(OC)cc(OC)c4Cl)ncn3)cc2)CC1`, the Potency was inconclusive: 18.7 µM [cytotoxic, partial curve, poor fit].
For `CCCCC(=O)O[C@]1(C(=O)CO)[C@@H](C)C[C@H]2[C@@H]3CCC4=CC(=O)C=C[C@]4(C)[C@@]3(F)[C@@H](O)C[C@@]21C`, the Potency was inconclusive: 6.62 µM [cytotoxic, partial curve, poor fit].
With `Cc1ccc2c(c1)c1c(n2CCc2ccc(C)nc2)CCN(C)C1` the Potency was inconclusive: 37.2 µM [cytotoxic, single point].
With `CC1=C(C(=O)O)N2C(=O)[C@@H](NC(=O)C(N)c3ccccc3)[C@H]2SC1` (stereo not given in full) the Potency was inconclusive: 0.003 µM [rising, full curve, poor fit].
For `Nc1nccc(-c2ccc3noc(-c4ccc(Cl)cc4)c3c2)n1`, the Potency was inconclusive: 20.9 µM [cytotoxic, partial curve, poor fit].
For `CCc1cc(-c2n[nH]c(C)c2-c2ccc3c(c2)OCCO3)c(O)cc1O`, the Potency was active: 4.18 µM.
For `C[C@]12C=CC(=O)C=C1CC[C@@H]1[C@@H]2C(=O)C[C@@]2(C)[C@H]1CC[C@]2(O)C(=O)CO`, the Potency was inconclusive: 0.115 µM [cytotoxic, full curve, poor fit].
For `C[C@@H](NCc1cc2ccccc2[nH]1)c1cccc2ccccc12`, the “viability, % of DMSO” value was inactive: 137%.
In the case of `NC(=O)Nc1cc(-c2cccc(F)c2)sc1C(=O)N[C@H]1CCCNC1`, the Potency was active: 1.32 µM.
With `COc1cc2c(cc1-c1c(C)noc1C)ncc1[nH]c(=O)n([C@H](C)c3ccccn3)c12` the Potency was active: 6.62 µM.
With `CCN(CCO)CCCOc1ccc2c(Nc3cc(CC(=O)Nc4cccc(F)c4)[nH]n3)ncnc2c1` the Potency was inconclusive: 0.0118 µM [cytotoxic, full curve, poor fit].
With `Cn1cnc2c(F)c(Nc3ccc(Br)cc3F)c(C(=O)NOCCO)cc21` the Potency was inconclusive: 0.001 µM.
With `O=C(Nc1cccc2c(=O)cc(-c3nn[nH]n3)oc12)c1ccc(OCCCCc2ccccc2)cc1` the Potency was inconclusive: 18.7 µM [cytotoxic, partial curve, poor fit].
For `CNC[C@@H](O)[C@@H](O)[C@H](O)[C@H](O)CO`, the Potency was inconclusive: 0.0033 µM [rising, full curve, poor fit].
In the case of `Cn1cc(C[C@@H](N)C(=O)O)c2ccccc21`, the Potency was inconclusive: 1.29 µM [cytotoxic, partial curve, poor fit].
With `CNC(=O)c1ccc2c(C(=Nc3cccc(CN(C)C)c3)c3ccccc3)c(O)[nH]c2c1` the Potency was active: 2.64 µM.
In the case of `CC(=O)SC[C@@H](C)C(=O)N1CCC[C@H]1C(=O)N[C@@H](Cc1ccccc1)C(=O)O`, the Potency was inconclusive: 0.0033 µM [cytotoxic, full curve, poor fit].
With `Cc1ccc(-c2cc(C(F)(F)F)nn2-c2ccc(S(N)(=O)=O)cc2)cc1` the Potency was inconclusive: 11.8 µM [cytotoxic, full curve, poor fit].
For `Fc1ccc([C@@H]2CCNC[C@H]2COc2ccc3c(c2)OCO3)cc1`, the Potency was inconclusive: 29.6 µM [cytotoxic, single point].
For `COc1ccc2c(c1OC)C(=O)OC2[C@H]1c2c(cc3c(c2OC)OCO3)CCN1C` (stereo not given in full), the Potency was active: 5.26 µM.
With `Cn1c(NCCN(CCO)CCCc2ccc([N+](=O)[O-])cc2)cc(=O)n(C)c1=O` the Potency was inconclusive: 16.6 µM [cytotoxic, partial curve, poor fit].
With `Nc1ccc(S(=O)(=O)Nc2ncccn2)cc1` the Potency was inconclusive: 0.0019 µM [rising, full curve, poor fit].
With `CN(C)c1nc(Cc2ccc(NC(=O)c3ccc(C(F)(F)F)cc3)cc2)nc(N(C)C)c1CC(=O)O` the Potency was inconclusive: 0.0019 µM [cytotoxic, full curve, poor fit].
For `COc1ccc2c(c1)c(CC(=O)OCC(=O)O)c(C)n2C(=O)c1ccc(Cl)cc1`, the “viability, % of DMSO” value was inactive: 102%.
With `Nc1ccc(C(=O)c2cc3c(ccc4ccccc43)[nH]2)cc1` the Potency was active: 7.43 µM.
With `CC[C@H]1OC(=O)[C@H](C)[C@@H](O[C@H]2C[C@@](C)(OC)[C@@H](O)[C@H](C)O2)[C@H](C)[C@@H](O[C@@H]2O[C@@H](C)C[C@H](N(C)C)[C@@H]2O)[C@](C)(O)C[C@@H](C)C(=O)[C@H](C)[C@@H](O)[C@]1(C)O` the Potency was inconclusive: 0.264 µM [rising, full curve, poor fit].
For `C=CC[C@@H]1C=C(C)C[C@H](C)C[C@H](OC)[C@H]2O[C@@](O)(C(=O)C(=O)N3CCCC[C@H]3C(=O)O[C@H](C(C)=C[C@@H]3CC[C@H](O)[C@H](OC)C3)[C@@H](C)[C@@H](O)CC1=O)[C@@H](C)C[C@@H]2OC`, the Potency was active: 0.662 µM.
With `CCCCCCOC(=O)N=C(N)c1ccc(NCc2nc3cc(C(=O)N(CCC(=O)OCC)c4ccccn4)ccc3n2C)cc1` the Potency was active: 18.7 µM.
For `CC[C@H](C)C(=O)O[C@H]1C[C@@H](C)C=C2C=C[C@H](C)[C@H](CC[C@@H]3C[C@@H](O)CC(=O)O3)[C@H]21`, the Potency was inconclusive: 16.6 µM [cytotoxic, partial curve, poor fit].
In the case of `COc1nc(C)cnc1NS(=O)(=O)c1cccnc1-c1ccc(-c2nnco2)cc1`, the Potency was active: 1.87 µM.
For `CC[C@H](CC[C@@H](C)[C@H]1CC[C@H]2[C@@H]3CC=C4C[C@@H](O)CC[C@]4(C)[C@@H]3CC[C@]12C)C(C)C`, the “viability, % of DMSO” value was inactive: 104%.
For `NS(=O)(=O)c1cc(Cl)c(Cl)c(S(N)(=O)=O)c1`, the “viability, % of DMSO” value was inactive: 124%.
For `CC(C)(C)[C@H](NC(=O)c1ccc(N)c(Cl)c1)C(=O)N1CCC[C@@H]1C(=O)N[C@H](C#N)CC(=O)O`, the Potency was inconclusive: 0.0004 µM.
For `CCC(=O)N1CCN(c2ccc(-n3c(=O)ccc4cnc5ccc(-c6cnc7ccccc7c6)cc5c43)cc2C(F)(F)F)CC1`, the Potency was inconclusive: 0.0148 µM [cytotoxic, full curve].
Potency is read from the fitted curve at half-maximal effect.
